These are yes or no findings as the source states them, for the method shown. Some results given as binding are weak or reduced against the parent protein; the word gives no strength.
What was measured:
[1] = molecular target: Cyno PD-L1-Fc (cynomolgus) (UniProt G7PSE7); experiment: ForteBio (Tables 5 and 6)
[2] = molecular target: Cyno PD-L2-Fc (cynomolgus); experiment: ForteBio (Tables 5 and 6)

Binder	binding [1]	binding [2]
BiPDL4-24 (antibody, V domains shown) VH: QVQLVESGGGVVQPGRSLRLSCAASGFTFDEYGMHWVRQAPGKGLEWVAVIGYDGLNKYYADSVKGRFTISRDNSKNTLYLQMNSLRAEDTAVYYCARAGIEYSYAYTDYWGQGTLVTVSS VL: EIVLTQSPGTLSLSPGERATLSCRASNSVVSSYLAWYQQKPGQAPRLLIYGAASRANGIPDRFSGSGSGTDFTLTISRLEPEDFAVYYCVQFGWWPPRTFGGGTKVEIK	binds	binds
BiPDL4-44 (antibody, V domains shown) VH: QVQLVESGGGVIQPGRSLRLSCAASGFTFSAYLMHWVRQAPGKGLEWVAAIGYDGMNKYYADSVKGRFTISRDNSKNTLYLQMNSLRAEDTAVYYCARAGIEYSYAYTDYWGQGTLVTVSS VL: EIVLTQSPGTLSLSPGERATLSCRASHSVVSSYLAWYQQKPGQAPRLLIYGASSREDGIPDRFSGSGSGTDFTLTISRLEPEDFAVYYCVQFGWWPPRTFGGGTKVEIK	binds	binds

Reference: patent US20250059282A1
